This assay has as its target T1, LpCat1 (lysophosphatidylcholine acyltransferase 1) (human) (UniProt Q8NF37).
T1 sequence: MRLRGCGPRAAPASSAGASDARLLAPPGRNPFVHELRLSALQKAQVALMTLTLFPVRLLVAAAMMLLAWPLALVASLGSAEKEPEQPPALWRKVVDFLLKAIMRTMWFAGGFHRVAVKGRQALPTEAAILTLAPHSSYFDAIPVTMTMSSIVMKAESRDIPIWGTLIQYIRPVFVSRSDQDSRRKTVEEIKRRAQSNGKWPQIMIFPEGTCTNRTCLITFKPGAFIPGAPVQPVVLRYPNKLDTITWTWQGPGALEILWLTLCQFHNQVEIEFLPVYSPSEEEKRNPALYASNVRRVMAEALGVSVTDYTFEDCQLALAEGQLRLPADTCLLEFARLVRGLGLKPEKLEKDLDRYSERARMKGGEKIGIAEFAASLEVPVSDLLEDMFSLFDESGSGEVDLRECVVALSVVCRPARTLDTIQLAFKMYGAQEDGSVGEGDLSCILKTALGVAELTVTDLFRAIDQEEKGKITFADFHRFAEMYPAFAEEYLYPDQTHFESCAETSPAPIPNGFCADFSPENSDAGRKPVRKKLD
Description: affinity purification with mass spectrometry; IP with anti-LpCat1 antibody (1 ug) from cell lysate (1 mg) of Huh7 cells stably transfected with LpCat1 overexpression or null control vector, overnight at 4 C; Protein A/G Sepharose beads 2 h; SDS-PAGE, Coomassie bands analysed by LC/MS.

By UniProt entry, the sequences of proteins in these tests, tags left out.
UniProt P42224: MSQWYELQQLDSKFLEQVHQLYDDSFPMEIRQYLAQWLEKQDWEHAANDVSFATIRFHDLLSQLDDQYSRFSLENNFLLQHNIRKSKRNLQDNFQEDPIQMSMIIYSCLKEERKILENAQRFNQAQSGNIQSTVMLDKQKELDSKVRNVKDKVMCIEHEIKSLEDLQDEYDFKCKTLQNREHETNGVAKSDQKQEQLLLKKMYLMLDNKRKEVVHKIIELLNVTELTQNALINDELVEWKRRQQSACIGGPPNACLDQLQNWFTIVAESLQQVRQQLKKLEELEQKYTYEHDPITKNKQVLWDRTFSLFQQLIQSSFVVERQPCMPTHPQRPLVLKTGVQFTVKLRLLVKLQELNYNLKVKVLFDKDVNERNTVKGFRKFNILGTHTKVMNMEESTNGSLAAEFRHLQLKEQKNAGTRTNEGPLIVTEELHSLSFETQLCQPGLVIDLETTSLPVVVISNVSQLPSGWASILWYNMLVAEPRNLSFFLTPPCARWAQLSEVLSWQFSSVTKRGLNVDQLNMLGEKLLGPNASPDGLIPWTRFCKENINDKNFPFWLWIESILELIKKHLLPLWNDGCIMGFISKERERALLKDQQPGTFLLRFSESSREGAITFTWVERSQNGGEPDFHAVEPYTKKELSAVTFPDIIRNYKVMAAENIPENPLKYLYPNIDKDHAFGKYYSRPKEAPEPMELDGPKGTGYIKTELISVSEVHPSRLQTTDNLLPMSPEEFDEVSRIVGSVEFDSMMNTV

Results are given in words; binding and its absence hold for the method and conditions named. In cells and extracts the contact can be indirect. These calls come from enrichment with a bait or labelling near it, and not all partners need be listed.

STAT1 (from UniProt P42224 1-750): the binding entry is “binds”.

The record behind these values is publication PMC8220817.
